Measured values: patent publication US10316008B2, “KCNQ potassium channel agonist, and preparation method therefor and use thereof” (SHANGHAI INSTITUTE OF MATERIA MEDICA, CHINESE ACADEMY OF …, priority 2014, dated 2019)
At least one compound was matched to its structure with a doubt left.

Tested on: convulsive mice induce by MES
Experiment: MES (maximum electroshock) induced convulsion model, oral perfusion
Assay type: in vivo, KM mice
Conditions: orally administered
Text: YLS-9A model physiological pharmaceutical electronic stimulator was used in the experiment to induce convulsion of mice, and specific parameters were set as follows: configuration 8, stimulating voltage: 160V, period of stimulation: 5.4 sec. Healthy KM mice (SPF level, male, body weight: 18 to 22 g) were selected for the experiment. After the ear tip of the mice was sufficiently wetted with physiological saline, the mice was electrically stimulated once with ear clip electrode, and tonic hind-limb seizure was deemed as indication of convulsion. The mice were screened one day before the experiment to weed out the dead mice and the ones without generalized tonic seizure. The qualified mice were caged randomly with access to water at liberty. Before the experiment started, the mice were fasted for 8 h.
The compounds to be tested were freshly formulated on the day of experiment. RTG hydrochloride was dissolved with ultrapure water to obtain a solution with desired concentration. […] The number of mice with generalized tonic-clonic convulsion in each group was recorded, the protection rate of each of the compounds to be tested on convulsive mice induce by MES was calculated and dose-response curve for each compound was plotted. […]

## CCOC(=O)Nc1ccc(NCc2ccc(F)cc2)cc1N [RTG, retigabine, reference compound]
  protective effect on convulsive mice induce by MES: dose dependent protective effect
